# Source: patent US10064926B2, “Peptides and combination of peptides for use in immunotherapy against hepatocellular carcinoma (HCC) and other cancers” (Immatics biotechnologies GmbH, priority 2014, dated 2018)
# Assays:
# [1] = tested on: tumor samples of other tumor types; assay: Over-presentation of peptides on additional tumor types versus normal tissues (LC-MS); design: species or system human; details: over-presentation on more than 5% of the measured tumor samples, or presentation on more than 5% with ratio of geometric means tumor vs normal tissues larger than 3
# [2] = tested on: primary HCC tissue samples; assay: Identification and label-free LC-MS relative quantitation of HLA-presented peptides (presentation profiles/scores), HCC versus normal tissues; design: species or system human; key to PeptidePresentation (presentation score): very highly over-presented on tumors compared to a panel of normal tissues (+++); highly over-presented on tumors compared to a panel of normal tissues (++); over-presented on tumors compared to a panel of normal tissues (+); details: HCC tumors compared to a panel of normal tissues
Substance,Additional Entities (additional tumor types on which the peptide was found over-presented) [1],Other relevant organs/diseases (additional tumor types on which the peptide was found over-presented) [1],PeptidePresentation (presentation score) [2]
121 (YLITGNLEKL; listed as Homo sapiens) [compound 121],"NSCLC, CLL, BRCA, Melanoma, OC, Esophageal Cancer, Urinary bladder cancer, Uterine Cancer, Gallbladder Cancer, Bile Duct Cancer, NHL, PC","Kidney, Colon, Rectum, Pancreas",+
123 (YLWDLDHGFAGV; listed as Homo sapiens) [compound 123],"NSCLC, SCLC, PrC, BRCA, Melanoma, OC; Esophageal Cancer, AML, NHL","Brain, Colon, Rectum",++
127 (VLIGSNHSL; listed as Homo sapiens) [compound 127],"PC, BRCA, Esophageal Cancer, Urinary bladder cancer, Uterine Cancer, AML","Colon, Rectum",+
128 (GLAFSLNGV; listed as Homo sapiens) [compound 128],"Melanoma, Uterine Cancer, Gallbladder Cancer, Bile Duct Cancer",,+
129 (SQADVIPAV; listed as Homo sapiens) [compound 129],Urinary bladder cancer,,+
131 (ALDSGAFQSV; listed as Homo sapiens) [compound 131],"CRC, Melanoma, Gallbladder Cancer, Bile Duct Cancer",,++
133 (ALLEMDARL; listed as Homo sapiens) [compound 133],"NSCLC, SCLC, BRCA, MCC, Melanoma, OC, Esophageal Cancer, Urinary bladder cancer, Uterine Cancer, Gallbladder Cancer, Bile Duct Cancer, AML, NHL","Kidney, Brain, Colon, Rectum",+
134 (ALLETNPYLL; listed as Homo sapiens) [compound 134],"Urinary bladder cancer, Gallbladder Cancer, Bile Duct Cancer",Brain,++
135 (ALLGKIEKV; listed as Homo sapiens) [compound 135],"NSCLC, SCLC, BRCA, OC, Gallbladder Cancer, Bile Duct Cancer","Brain, Pancreas",+
137 (ALPTVLVGV; listed as Homo sapiens) [compound 137],"NSCLC, GC, BRCA, Melanoma, Esophageal Cancer, Urinary bladder cancer, Uterine Cancer, Gallbladder Cancer, Bile Duct Cancer, PC","Kidney, Brain, Colon, Rectum",++
139 (ALSSKPAEV; listed as Homo sapiens) [compound 139],"PrC, OC, Uterine Cancer","Colon, Rectum, Pancreas",+
144 (FIQLITGV; listed as Homo sapiens) [compound 144],"NSCLC, Brain Cancer, Urinary bladder cancer",Pancreas,+
147 (GLAPGGLAVV; listed as Homo sapiens) [compound 147],"NSCLC, SCLC, PrC, BRCA, Melanoma, OC, Esophageal Cancer, Urinary bladder cancer, Uterine Cancer",Brain,+
